PubChem BioAssay AID1224830 – NIAID, 2016
The deposit covers about 18,000 reagents; shown is a part drawn at random. About 2,900 of them (16%) count as active. 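Calls are made per well; low scores hint the gene aids the LPS response, high scores that it dampens it.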 Repeated entries: four replicate wells of each siRNA pool. No sequences are given here.

- Screen: 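Genes whose knock-down alters the TNF-alpha reporter response to LPS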 (primary screen)
- System: human THP-1 monocytic leukaemia cells, TNF dual-luciferase reporter clone, PMA-differentiated to macrophage-like cells
- Reagents: siRNA pool against human genes, 50 nM
- Time to read-out: LPS for 4 h, given about 3 days after siRNA transfection
- Conditions: bacterial LPS (TLR4 ligand), 10 ng/ml
- Measurement: 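Ratio of firefly to renilla light, scaled to the plate median and expressed as a robust z-score per replicate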
- Reading the numbers: TNF reporter robust z-score: higher = stronger TNF reporter response to LPS
- Active means: 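Each well counts as active if its z-score is over 2.8 or under -1.5; controls are left without a call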

| target | TNF reporter robust z-score | activity call |
| --- | --- | --- |
| SLC5A9 | 0.76 | inactive |
| SLC5A9 | 0.93 | inactive |
| SLC5A9 | 0.27 | inactive |
| SLC5A9 | 0.23 | inactive |
| OR5T3 (olfactory receptor family 5 subfamily T member 3) | -1.16 | inactive |
| OR5T3 (olfactory receptor family 5 subfamily T member 3) | -0.9 | inactive |
| OR5T3 (olfactory receptor family 5 subfamily T member 3) | -0.99 | inactive |
| OR5T3 (olfactory receptor family 5 subfamily T member 3) | -1.29 | inactive |
| FAM168A (family with sequence similarity 168 member A) | -0.51 | inactive |
| FAM168A (family with sequence similarity 168 member A) | -0.03 | inactive |
| FAM168A (family with sequence similarity 168 member A) | 1.69 | inactive |
| FAM168A (family with sequence similarity 168 member A) | 0.84 | inactive |
| LRRC26 (leucine rich repeat containing 26) | -1.21 | inactive |
| LRRC26 (leucine rich repeat containing 26) | -1.33 | inactive |
| LRRC26 (leucine rich repeat containing 26) | -0.89 | inactive |
| LRRC26 (leucine rich repeat containing 26) | -1.46 | inactive |

Part of the list above, reformatted.
target	TNF reporter robust z-score	activity call
FAM168A (family with sequence similarity 168 member A)	0.84	inactive
LRRC26 (leucine rich repeat containing 26)	-1.21	inactive
LRRC26 (leucine rich repeat containing 26)	-1.33	inactive
LRRC26 (leucine rich repeat containing 26)	-0.89	inactive

Next entries follow:
| target | TNF reporter robust z-score | activity call |
| --- | --- | --- |
| SMAGP (small cell adhesion glycoprotein) | -0.51 | inactive |
| SMAGP (small cell adhesion glycoprotein) | -0.79 | inactive |
| SMAGP (small cell adhesion glycoprotein) | -1.56 | active |
| SMAGP (small cell adhesion glycoprotein) | -0.53 | inactive |
| ZZEF1 (zinc finger ZZ-type and EF-hand domain containing 1) | -0.2 | inactive |
| ZZEF1 (zinc finger ZZ-type and EF-hand domain containing 1) | 0.54 | inactive |
| ZZEF1 (zinc finger ZZ-type and EF-hand domain containing 1) | 0.88 | inactive |
| ZZEF1 (zinc finger ZZ-type and EF-hand domain containing 1) | 0.61 | inactive |
| SSTR1 (somatostatin receptor 1) | -1.49 | inactive |
| SSTR1 (somatostatin receptor 1) | 0.01 | inactive |
| SSTR1 (somatostatin receptor 1) | -0.18 | inactive |
| SSTR1 (somatostatin receptor 1) | 0.13 | inactive |
| ZC3H6 (zinc finger CCCH-type containing 6) | 1.01 | inactive |
| ZC3H6 (zinc finger CCCH-type containing 6) | -0.27 | inactive |
| ZC3H6 (zinc finger CCCH-type containing 6) | 0.15 | inactive |
| ZC3H6 (zinc finger CCCH-type containing 6) | 0.55 | inactive |
| KLRA1P (killer cell lectin like receptor A1, pseudogene) | 1.2 | inactive |
| KLRA1P (killer cell lectin like receptor A1, pseudogene) | 0.85 | inactive |
| KLRA1P (killer cell lectin like receptor A1, pseudogene) | 0.51 | inactive |
| KLRA1P (killer cell lectin like receptor A1, pseudogene) | 1.1 | inactive |
| CNTLN (centlein) | -1.61 | active |
| CNTLN (centlein) | -1.32 | inactive |
| CNTLN (centlein) | -1.14 | inactive |
| CNTLN (centlein) | -0.31 | inactive |
| ARL17B (ARF like GTPase 17B) | 0.18 | inactive |
| ARL17B (ARF like GTPase 17B) | 0.31 | inactive |
| ARL17B (ARF like GTPase 17B) | 0.96 | inactive |
| ARL17B (ARF like GTPase 17B) | 0.41 | inactive |
| NCOA6 (nuclear receptor coactivator 6) | -1.8 | active |
| NCOA6 (nuclear receptor coactivator 6) | -1.78 | active |
| NCOA6 (nuclear receptor coactivator 6) | -1.54 | active |
